Results on one compound are retold here after publication PMC8401404 (Molecules, 2021).

Experiment [1] deals with A549. Briefly: MTS cytotoxicity assay, 2D cell culture. The conditions noted are these: Homo sapiens, A549, 72 h, read-out: Cytotoxicity Assay IC50 ± SD; A549 2D. How it is done:
(§1) MTS assay gives us information about the number of living cells, in this case, metabolically active cells, whereas the BrdU proliferation assay gives a measure of the cell population in active division phase. Both assays were performed in 2D and 3D assay formats. For the 2D cell assay format, we used classic two-dimensional in vitro assays and as a 3D assay we used a hanging drop proliferation cell assay as previously described. We explored the activity of compounds on three human lung cancer cell lines, A549, HCC827 and NCI-H358. The compound activity was also tested on human lung fibroblast cell line MRC-5. A two-dimensional in vitro viability assay was performed on the MRC-5 cell line to see if tested compounds are cytotoxic on normal cell lines in low concentrations. […] 7.1.
(§2) Test compounds were synthesized by a research group at the Department of Organic Chemistry, Faculty of Chemical Engineering and Technology, University of Zagreb. […] Compounds were diluted 1:3. We transferred 500 nL (for 2D cell culture) or 400 nL (for 3D cell culture) of the compound from a mother plate to test plate by using Mosquito (TTP labtech). DMSO percentage in test concentrations was 0.5–1.0%. […]
(§3) Cells were grown in 96-well cell star polystyrene plates. […] After 0.5–2 h of cell incubation with MTS in 2D cell culture, the plates were read using PE EnVision absorbance at 490 nm. […]

The test system of experiment [2] is NCI-H358. Briefly: MTS cytotoxicity assay, 2D cell culture. The conditions noted are these: Homo sapiens, NCI-H358, 72 h, read-out: Cytotoxicity Assay IC50 ± SD; NCI-H358 2D. Here is the method: as §1, §2, §3
(Tetrazolium assays rely on reduction of a dye to a coloured formazan, in cell work by metabolically active cells.)

The test system of experiment [3] is A549. Kind of experiment: Cytotoxicity (viability) assay, 3D hanging drop cell culture. Particulars: Homo sapiens, A549, 72 h, read-out: Cytotoxicity Assay IC50 ± SD; A549 3D. How it is done: as §1
(§4) Test compounds were synthesized by a research group at the Department of Organic Chemistry, Faculty of Chemical Engineering and Technology, University of Zagreb. […] Compounds were diluted 1:3. We transferred 500 nL (for 2D cell culture) or 400 nL (for 3D cell culture) of the compound from a mother plate to test plate by using Mosquito (TTP labtech). DMSO percentage in test concentrations was 0.5–1.0%. Starting concentration of the test compounds and standard compound doxorubicin was 50 µM (2D cell culture) or 100 µM (3D cell culture).
(§5) Cells were grown in 96-well Perfecta 3D hanging drop plates 5000 cell/well for 4 days until spheres were formed (and checked under the microscope). After sphere formation cells were treated with compounds followed by 72 h incubation. Cell viability assay was performed according to the manufacturer’s instructions, using CellTiter GLO 3D for 3D cell culture (Promega); cell incubation was 5 min on the shaker followed by 25 min incubation in the dark. Plates were read using PE EnVision luminescence.
(§6) Calculation of IC50 data, curves and QC analysis was performed by using Excel tools and GraphPadPrism software (La Jolla, CA, USA), v. […] QC criteria parameters (Z’, S:B, R2, HillSlope) were checked for every IC50 curve.

Experiment [4] concerns HCC827. The description is as above. The conditions noted are these: Homo sapiens, HCC827, 72 h, read-out: Cytotoxicity Assay IC50 ± SD; HCC827 3D. Here is the method:
as §1, §4, §5, §6

Experiment [5] deals with NCI-H358. The description is as above. Particulars: Homo sapiens, NCI-H358, 72 h, read-out: Cytotoxicity Assay IC50 ± SD; NCI-H358 3D. Here is the method: as §1, §4, §5, §6
Experiment [6] relates to HCC827. Kind of experiment: BrdU proliferation assay, 3D hanging drop cell culture. The format is cell-based. The conditions noted are these: Homo sapiens, HCC827, read-out: Proliferation Assay IC50 ± SD; HCC827 3D. Here is the method:
as §1, §2
Cells were grown in 96-well Perfecta 3D hanging drop plates 5000 cell/well for 4 days until spheres were formed (and checked under the microscope). […] Plates were read using PE EnVision luminescence. […]

`CN[C@@H]1C[C@H]2O[C@@](C)([C@@H]1OC)n1c3ccccc3c3c4c(c5c6ccccc6n2c5c31)C(=O)NC4` [Staurosporine, reference compound]: the IC50 in the experiment on A549 [1] came out at 47 ± 7 nM; in the experiment with NCI-H358 [2], 41 ± 7 nM; in the experiment with A549 [3], 95 ± 10 nM; in the experiment with HCC827 [4], 2 ± 0.1 nM; with NCI-H358 [5], 2 ± 1 nM; in the experiment on HCC827 [6], 3 ± 2 nM.
